Measurements published in paper PMC10709353.

The chains behind the UniProt entries cited, without tags or fusion partners. Where a name states a change or a piece, a line headed by the entry shows the natural chain unless it says otherwise.
UniProt Q9H4L4: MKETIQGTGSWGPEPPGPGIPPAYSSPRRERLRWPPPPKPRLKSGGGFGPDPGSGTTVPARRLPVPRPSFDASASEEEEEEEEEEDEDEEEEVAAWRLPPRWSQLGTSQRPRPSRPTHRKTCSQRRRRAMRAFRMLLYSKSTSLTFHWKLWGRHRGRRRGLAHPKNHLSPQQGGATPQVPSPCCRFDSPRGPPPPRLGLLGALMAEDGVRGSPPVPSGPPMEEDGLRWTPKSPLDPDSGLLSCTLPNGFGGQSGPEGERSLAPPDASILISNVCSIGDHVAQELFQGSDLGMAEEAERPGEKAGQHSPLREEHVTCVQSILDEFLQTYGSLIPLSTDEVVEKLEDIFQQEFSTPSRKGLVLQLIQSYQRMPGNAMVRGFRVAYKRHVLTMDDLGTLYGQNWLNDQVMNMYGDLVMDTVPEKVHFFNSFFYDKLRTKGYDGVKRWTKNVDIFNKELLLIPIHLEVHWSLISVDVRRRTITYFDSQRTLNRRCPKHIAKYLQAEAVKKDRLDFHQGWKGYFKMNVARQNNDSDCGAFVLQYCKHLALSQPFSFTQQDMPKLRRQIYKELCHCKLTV
UniProt Q8IZL8: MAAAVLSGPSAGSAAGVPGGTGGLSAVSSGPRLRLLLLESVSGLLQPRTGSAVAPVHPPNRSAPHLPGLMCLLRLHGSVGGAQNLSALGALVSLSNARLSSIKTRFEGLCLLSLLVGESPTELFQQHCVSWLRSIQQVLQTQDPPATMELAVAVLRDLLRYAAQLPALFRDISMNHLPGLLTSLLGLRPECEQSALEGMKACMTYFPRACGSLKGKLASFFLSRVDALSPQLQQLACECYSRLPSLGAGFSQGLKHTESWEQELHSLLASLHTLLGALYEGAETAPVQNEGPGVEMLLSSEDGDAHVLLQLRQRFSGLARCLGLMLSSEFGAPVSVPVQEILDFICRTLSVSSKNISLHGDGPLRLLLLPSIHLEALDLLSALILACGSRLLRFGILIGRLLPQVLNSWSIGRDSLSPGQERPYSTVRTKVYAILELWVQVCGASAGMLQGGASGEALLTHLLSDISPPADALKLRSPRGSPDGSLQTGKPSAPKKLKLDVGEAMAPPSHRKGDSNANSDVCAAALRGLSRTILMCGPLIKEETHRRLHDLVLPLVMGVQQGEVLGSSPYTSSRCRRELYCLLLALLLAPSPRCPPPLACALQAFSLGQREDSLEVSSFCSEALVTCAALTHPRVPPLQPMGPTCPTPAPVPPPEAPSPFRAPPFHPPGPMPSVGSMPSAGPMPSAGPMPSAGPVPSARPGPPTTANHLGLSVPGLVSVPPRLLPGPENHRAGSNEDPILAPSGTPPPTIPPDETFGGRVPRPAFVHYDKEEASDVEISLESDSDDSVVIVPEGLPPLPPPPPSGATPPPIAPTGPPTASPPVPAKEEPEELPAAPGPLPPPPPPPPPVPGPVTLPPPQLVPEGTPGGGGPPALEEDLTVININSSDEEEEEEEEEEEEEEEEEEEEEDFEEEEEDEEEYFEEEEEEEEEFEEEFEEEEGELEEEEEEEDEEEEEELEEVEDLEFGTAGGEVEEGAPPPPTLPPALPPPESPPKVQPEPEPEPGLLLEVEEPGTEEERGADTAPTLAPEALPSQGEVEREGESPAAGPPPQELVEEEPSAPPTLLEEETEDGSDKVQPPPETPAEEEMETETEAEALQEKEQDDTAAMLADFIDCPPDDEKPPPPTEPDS

T1: UTP14A (human (endogenous in HeLa)) (UniProt Q9BVJ6)
T1 sequence: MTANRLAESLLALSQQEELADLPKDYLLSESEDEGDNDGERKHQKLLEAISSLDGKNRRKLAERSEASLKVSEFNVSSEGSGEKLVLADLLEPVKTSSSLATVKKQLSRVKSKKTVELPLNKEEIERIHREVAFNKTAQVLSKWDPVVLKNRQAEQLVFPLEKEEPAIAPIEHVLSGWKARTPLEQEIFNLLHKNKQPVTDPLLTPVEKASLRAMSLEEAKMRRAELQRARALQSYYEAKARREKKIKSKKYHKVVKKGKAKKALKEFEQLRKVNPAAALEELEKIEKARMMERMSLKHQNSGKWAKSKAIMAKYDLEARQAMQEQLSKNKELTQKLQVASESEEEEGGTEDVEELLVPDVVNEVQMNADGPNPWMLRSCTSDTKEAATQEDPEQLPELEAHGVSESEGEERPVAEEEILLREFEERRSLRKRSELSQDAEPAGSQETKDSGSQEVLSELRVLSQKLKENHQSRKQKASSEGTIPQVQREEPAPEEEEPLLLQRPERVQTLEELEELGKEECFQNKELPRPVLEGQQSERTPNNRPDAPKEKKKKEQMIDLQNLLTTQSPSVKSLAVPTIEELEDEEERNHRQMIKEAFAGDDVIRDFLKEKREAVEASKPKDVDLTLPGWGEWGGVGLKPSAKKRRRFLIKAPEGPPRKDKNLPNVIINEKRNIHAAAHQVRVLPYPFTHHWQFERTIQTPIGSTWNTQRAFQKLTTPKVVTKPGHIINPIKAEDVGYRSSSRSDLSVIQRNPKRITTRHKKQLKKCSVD

B1: LAS1L (protein, UniProt Q9Y4W2 1-734)
chain: MSWESGAGPGLGSQGMDLVWSAWYGKCVKGKGSLPLSAHGIVVAWLSRAEWDQVTVYLFCDDHKLQRYALNRITVWRSRSGNELPLAVASTADLIRCKLLDVTGGLGTDELRLLYGMALVRFVNLISERKTKFAKVPLKCLAQEVNIPDWIVDLRHELTHKKMPHINDCRRGCYFVLDWLQKTYWCRQLENSLRETWELEEFREGIEEEDQEEDKNIVVDDITEQKPEPQDDGKSTESDVKADGDSKGSEEVDSHCKKALSHKELYERARELLVSYEEEQFTVLEKFRYLPKAIKAWNNPSPRVECVLAELKGVTCENREAVLDAFLDDGFLVPTFEQLAALQIEYEDGQTEVQRGEGTDPKSHKNVDLNDVLVPKPFSQFWQPLLRGLHSQNFTQALLERMLSELPALGISGIRPTYILRWTVELIVANTKTGRNARRFSAGQWEARRGWRLFNCSASLDWPRMVESCLGSPCWASPQLLRIIFKAMGQGLPDEEQEKLLRICSIYTQSGENSLVQEGSEASPIGKSPYTLDSLYWSVKPASSSFGSEAKAQQQEEQGSVNDVKEEEKEEKEVLPDQVEEEEENDDQEEEEEDEDDEDDEEEDRMEVGPFSTGQESPTAENARLLAQKRGALQGSAWQVSSEDVRWDTFPLGRMPGQTEDPAELMLENYDTMYLLDQPVLEQRLEPSTCKTDTLGLSCGVGSGNCSNSSSSNFEGLLWSQGQLHGLKTGLQLF
B2: TEX10 (protein, UniProt Q9NXF1 1-929)
chain: MTKKRKRQHDFQKVKLKVGKKKPKLQNATPTNFKTKTIHLPEQLKEDGTLPTNNRKLNIKDLLSQMHHYNAGVKQSALLGLKDLLSQYPFIIDAHLSNILSEVTAVFTDKDANVRLAAVQLLQFLAPKIRAEQISPFFPLVSAHLSSAMTHITEGIQEDSLKVLDILLEQYPALITGRSSILLKNFVELISHQQLSKGLINRDRSQSWILSVNPNRRLTSQQWRLKVLVRLSKFLQALADGSSRLRESEGLQEQKENPHATSNSIFINWKEHANDQQHIQVYENGGSQPNVSSQFRLRYLVGGLSGVDEGLSSTENLKGFIEIIIPLLIECWVEAVPPQLATPVGNGIEREPLQVMQQVLNIISLLWKLSKQQDETHKLESWLRKNYLIDFKHHFMSRFPYVLKEITKHKRKEPNKSIKHCTVLSNNIDHLLLNLTLSDIMVSLANASTLQKDCSWIEMIRKFVTETLEDGSRLNSKQLNRLLGVSWRLMQIQPNREDTETLIKAVYTLYQQRGLILPVRTLLLKFFSKIYQTEELRSCRFRYRSKVLSRWLAGLPLQLAHLGSRNPELSTQLIDIIHTAAARANKELLKSLQATALRIYDPQEGAVVVLPADSQQRLVQLVYFLPSLPADLLSRLSRCCIMGRLSSSLAAMLIGILHMRSSFSGWKYSAKDWLMSDVDYFSFLFSTLTGFSKEELTWLQSLRGVPHVIQTQLSPVLLYLTDLDQFLHHWDVTEAVFHSLLVIPARSQNFDILQSAISKHLVGLTVIPDSTAGCVFGVICKLLDHTCVVSETLLPFLASCCYSLLYFLLTIEKGEAEHLRKRDKLWGVCVSILALLPRVLRLMLQSLRVNRVGPEELPVVGQLLRLLLQHAPLRTHMLTNAILVQQIIKNITTLKSGSVQEQWLTDLHYCFNVYITGHPQGPSALATVY
B3: UTP14A (protein, UniProt Q9BVJ6 1-771)
chain: MTANRLAESLLALSQQEELADLPKDYLLSESEDEGDNDGERKHQKLLEAISSLDGKNRRKLAERSEASLKVSEFNVSSEGSGEKLVLADLLEPVKTSSSLATVKKQLSRVKSKKTVELPLNKEEIERIHREVAFNKTAQVLSKWDPVVLKNRQAEQLVFPLEKEEPAIAPIEHVLSGWKARTPLEQEIFNLLHKNKQPVTDPLLTPVEKASLRAMSLEEAKMRRAELQRARALQSYYEAKARREKKIKSKKYHKVVKKGKAKKALKEFEQLRKVNPAAALEELEKIEKARMMERMSLKHQNSGKWAKSKAIMAKYDLEARQAMQEQLSKNKELTQKLQVASESEEEEGGTEDVEELLVPDVVNEVQMNADGPNPWMLRSCTSDTKEAATQEDPEQLPELEAHGVSESEGEERPVAEEEILLREFEERRSLRKRSELSQDAEPAGSQETKDSGSQEVLSELRVLSQKLKENHQSRKQKASSEGTIPQVQREEPAPEEEEPLLLQRPERVQTLEELEELGKEECFQNKELPRPVLEGQQSERTPNNRPDAPKEKKKKEQMIDLQNLLTTQSPSVKSLAVPTIEELEDEEERNHRQMIKEAFAGDDVIRDFLKEKREAVEASKPKDVDLTLPGWGEWGGVGLKPSAKKRRRFLIKAPEGPPRKDKNLPNVIINEKRNIHAAAHQVRVLPYPFTHHWQFERTIQTPIGSTWNTQRAFQKLTTPKVVTKPGHIINPIKAEDVGYRSSSRSDLSVIQRNPKRITTRHKKQLKKCSVD
B4: TSR1 (protein, UniProt Q2NL82 1-804)
chain: MAAHRPGPLKQQNKAHKGGRHRGRGSAQRDGKGRLALKTLSKKVRKELSRVDQRHRASQLRKQKKEAVLAEKRQLGGKDGPPHQVLVVPLHSRISLPEAMQLLQDRDTGTVHLNELGNTQNFMLLCPRLKHRWFFTSARPGDLHVVLDMAKVADTILFLLDPLEGWDSTGDYCLSCLFAQGLPTYTLAVQGISGLPLKKQIDTRKKLSKAVEKRFPHDKLLLLDTQQEAGMLLRQLANQKQQHLAFRDRRAYLFAHAVDFVPSEENNLVGTLKISGYVRGQTLNVNRLLHIVGYGDFQMKQIDAPGDPFPLNPRGIKPQKDPDMAMEICATDAVDDMEEGLKVLMKADPGRQESLQAEVIPDPMEGEQTWPTEEELSEAKDFLKESSKVVKKVPKGTSSYQAEWILDGGSQSGGEGDEYEYDDMEHEDFMEEESQDESSEEEEEYETMTIGESVHDDLYDKKVDEEAEAKMLEKYKQERLEEMFPDEVDTPRDVAARIRFQKYRGLKSFRTSPWDPKENLPQDYARIFQFQNFTNTRKSIFKEVEEKEVEGAEVGWYVTLHVSEVPVSVVECFRQGTPLIAFSLLPHEQKMSVLNMVVRRDPGNTEPVKAKEELIFHCGFRRFRASPLFSQHTAADKHKLQRFLTADMALVATVYAPITFPPASVLLFKQKSNGMHSLIATGHLMSVDPDRMVIKRVVLSGHPFKIFTKMAVVRYMFFNREDVLWFKPVELRTKWGRRGHIKEPLGTHGHMKCSFDGKLKSQDTVLMNLYKRVFPKWTYDPYVPEPVPWLKSEISSTVPQGGME
B5: NOP14 (protein, UniProt P78316 1-857)
chain: MAKAKKVGARRKASGAPAGARGGPAKANSNPFEVKVNRQKFQILGRKTRHDVGLPGVSRARALRKRTQTLLKEYKERDKSNVFRDKRFGEYNSNMSPEEKMMKRFALEQQRHHEKKSIYNLNEDEELTHYGQSLADIEKHNDIVDSDSDAEDRGTLSAELTAAHFGGGGGLLHKKTQQEGEEREKPKSRKELIEELIAKSKQEKRERQAQREDALELTEKLDQDWKEIQTLLSHKTPKSENRDKKEKPKPDAYDMMVRELGFEMKAQPSNRMKTEAELAKEEQEHLRKLEAERLRRMLGKDEDENVKKPKHMSADDLNDGFVLDKDDRRLLSYKDGKMNVEEDVQEEQSKEASDPESNEEEGDSSGGEDTEESDSPDSHLDLESNVESEEENEKPAKEQRQTPGKGLISGKERAGKATRDELPYTFAAPESYEELRSLLLGRSMEEQLLVVERIQKCNHPSLAEGNKAKLEKLFGFLLEYVGDLATDDPPDLTVIDKLVVHLYHLCQMFPESASDAIKFVLRDAMHEMEEMIETKGRAALPGLDVLIYLKITGLLFPTSDFWHPVVTPALVCLSQLLTKCPILSLQDVVKGLFVCCLFLEYVALSQRFIPELINFLLGILYIATPNKASQGSTLVHPFRALGKNSELLVVSAREDVATWQQSSLSLRWASRLRAPTSTEANHIRLSCLAVGLALLKRCVLMYGSLPSFHAIMGPLQALLTDHLADCSHPQELQELCQSTLTEMESQKQLCRPLTCEKSKPVPLKLFTPRLVKVLEFGRKQGSSKEEQERKRLIHKHKREFKGAVREIRKDNQFLARMQLSEIMERDAERKRKVKQLFNSLATQEGEWKALKRKKFKK

Target: FLAG-SENP3^C532S (human) (UniProt Q9H4L4)
Experiment: affinity purification with mass spectrometry; anti-FLAG IP of lysates of HEK293T cells transiently expressing FLAG-SENP3^C532S or FLAG-SENP5^C713S against mock control; triplicates; label-free quantification (interactors: log2 ratio >= 1, -log10 p value >= 1.3)

With PELP1 (from UniProt Q8IZL8 1-1130) as the molecule, how does the binding read?
Its binding is “binds”.

For B1, which binding is on record?
Its binding is “binds”.

With B2 as the molecule, how does the binding read?
The binding was “binds”.

How did the binding turn out when B3 was run?
Its binding is “binds”.

Target: T1, UTP14A (human (endogenous in HeLa))
Experiment: affinity purification with mass spectrometry; IP of endogenous UTP14A (antibody crosslinked to protein A/G beads) against IgG control from HeLa cells transfected for 72 h with siControl, siSENP3, siSENP5 or siSENP3/5; 50 mM HEPES, 150 mM NaCl, 1.5 mM MgCl2, 1 mM EGTA, 10% glycerol, 1% Triton X-100, pH 7.2, 10 mM NEM; four replicates; label-free quantification

Which binding does the source give for B4 here?
Its binding is “binds”.

For B5, which binding is on record?
Its binding is “binds”.

These are yes or no findings as the source states them, for the method shown. Binding seen in cells or lysates may run through a third protein. A yes stands for co-enrichment or nearness to the bait. Other partners may have been found.
